The values below come from patent US20100255000A1.

Protein sequences, listed by entry. Tags and fused reporters are not part of them. Lines headed by an entry give the natural chain unless they say otherwise; changes in a name come on top.
UniProt P00742: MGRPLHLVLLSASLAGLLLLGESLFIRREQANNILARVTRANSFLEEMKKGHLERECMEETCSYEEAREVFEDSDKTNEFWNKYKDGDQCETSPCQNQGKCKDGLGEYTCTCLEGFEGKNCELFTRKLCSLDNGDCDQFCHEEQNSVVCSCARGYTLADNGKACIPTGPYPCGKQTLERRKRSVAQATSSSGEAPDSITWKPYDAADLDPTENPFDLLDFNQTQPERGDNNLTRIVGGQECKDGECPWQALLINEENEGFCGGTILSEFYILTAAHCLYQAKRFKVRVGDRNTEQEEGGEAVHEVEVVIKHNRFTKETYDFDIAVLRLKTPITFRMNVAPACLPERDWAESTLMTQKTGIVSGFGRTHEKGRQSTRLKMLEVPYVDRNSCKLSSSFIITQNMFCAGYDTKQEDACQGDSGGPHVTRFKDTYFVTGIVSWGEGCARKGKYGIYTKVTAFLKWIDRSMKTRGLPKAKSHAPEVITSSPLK

The test deals with r-Antidote (recombinant antidote; human factor Xa triple mutant after removal of the -RKRRKR- linker, SEQ ID NO. 13) (human) (UniProt P00742). Kind of test: affinity chromatography on immobilised soybean trypsin inhibitor.

These are yes or no findings as the source states them, for the method shown. Some binding calls cover weakened binding; strength is not graded here.

B1: soybean trypsin inhibitor-agarose (STI-Agarose, Sigma Catalog #T0637) (protein, UniProt P01070 25-205, looked up)
chain: DFVLDNEGNPLENGGTYYILSDITAFGGIRAAPTGNERCPLTVVQSRNELDKGIGTIISSPYRIRFIAEGHPLSLKFDSFAVIMLCVGIPTEWSVVEDLPEGPAVKIGENKDAMDGWFRLERVSDDEFNNYKLVFCPQQAEDDKCGDIGISIDHDDGTRRLVVSKNKPLVVQFQKLDKESL
modifications: coupled to agarose
Take B1: the binding result was “binds”.
